According to PMC4024641:
Results are given in words; binding and its absence hold for the method and conditions named. Binding seen in cells or lysates may run through a third protein. Some binding calls cover weakened binding; strength is not graded here. Sequences can lack the tags named with a protein.

Key:
[1] = target: T1, Red5-13×myc (S. pombe), O74823; experiment: co-IP; α-myc (9E10) on Protein G Dynabeads from S. pombe cell lysate, 4°C 2–3 h, lysis buffer; blot with α-FLAG-HRP; without RNase A; conditions: remark: other sources report otherwise
T1 chain: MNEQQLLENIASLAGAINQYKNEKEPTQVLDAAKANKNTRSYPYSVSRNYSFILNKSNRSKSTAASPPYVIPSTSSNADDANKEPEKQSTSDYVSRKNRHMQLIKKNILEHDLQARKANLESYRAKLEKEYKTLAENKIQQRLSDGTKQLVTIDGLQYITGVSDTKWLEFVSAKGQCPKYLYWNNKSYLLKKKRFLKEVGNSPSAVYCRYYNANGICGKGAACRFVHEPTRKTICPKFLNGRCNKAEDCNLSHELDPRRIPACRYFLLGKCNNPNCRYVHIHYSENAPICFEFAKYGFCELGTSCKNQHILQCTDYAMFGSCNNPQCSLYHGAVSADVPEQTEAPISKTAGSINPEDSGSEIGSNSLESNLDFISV

[2] = target: T2, Rmn1-13×myc (S. pombe) (UniProt Q9USP9); experiment: as above
T2 sequence: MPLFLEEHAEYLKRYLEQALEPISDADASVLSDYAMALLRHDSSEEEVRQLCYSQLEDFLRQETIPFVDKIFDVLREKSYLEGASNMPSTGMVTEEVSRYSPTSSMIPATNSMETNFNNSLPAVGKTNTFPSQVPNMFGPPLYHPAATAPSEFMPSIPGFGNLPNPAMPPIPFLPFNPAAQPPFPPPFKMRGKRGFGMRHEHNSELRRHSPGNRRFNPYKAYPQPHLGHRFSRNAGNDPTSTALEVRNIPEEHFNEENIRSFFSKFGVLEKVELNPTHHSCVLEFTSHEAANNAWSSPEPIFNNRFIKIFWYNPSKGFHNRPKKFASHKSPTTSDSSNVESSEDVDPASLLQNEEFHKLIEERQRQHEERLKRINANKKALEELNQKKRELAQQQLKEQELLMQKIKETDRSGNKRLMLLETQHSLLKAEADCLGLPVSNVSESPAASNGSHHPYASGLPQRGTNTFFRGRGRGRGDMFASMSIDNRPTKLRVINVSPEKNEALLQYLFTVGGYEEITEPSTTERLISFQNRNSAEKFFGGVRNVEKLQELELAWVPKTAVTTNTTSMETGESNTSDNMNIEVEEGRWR

[3] = target: T3, Ars2-13×myc (S. pombe) (UniProt O94326); experiment: as above
T3 sequence: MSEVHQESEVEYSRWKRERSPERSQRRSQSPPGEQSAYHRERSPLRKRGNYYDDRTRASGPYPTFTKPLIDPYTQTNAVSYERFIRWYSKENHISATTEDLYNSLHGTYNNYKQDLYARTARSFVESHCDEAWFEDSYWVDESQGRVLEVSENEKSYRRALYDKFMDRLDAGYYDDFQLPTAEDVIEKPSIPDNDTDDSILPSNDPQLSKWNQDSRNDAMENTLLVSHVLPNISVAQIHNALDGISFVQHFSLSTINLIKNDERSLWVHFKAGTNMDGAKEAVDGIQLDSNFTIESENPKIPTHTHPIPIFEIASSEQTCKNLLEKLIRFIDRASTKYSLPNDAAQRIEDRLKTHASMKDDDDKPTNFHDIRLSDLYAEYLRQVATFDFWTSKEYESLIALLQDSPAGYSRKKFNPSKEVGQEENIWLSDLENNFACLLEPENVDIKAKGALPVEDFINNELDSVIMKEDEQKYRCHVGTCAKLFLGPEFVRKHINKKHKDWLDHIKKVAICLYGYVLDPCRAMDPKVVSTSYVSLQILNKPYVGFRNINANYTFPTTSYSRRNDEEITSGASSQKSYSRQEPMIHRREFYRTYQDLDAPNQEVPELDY

[4] = target: T2, Rmn1-13×myc (S. pombe); experiment: co-IP; α-myc (9E10) on Protein G Dynabeads from S. pombe cell lysate, 4°C 2–3 h; RNase A 100 μg/mL present during binding and washing; blot with α-FLAG-HRP
[5] = target: T3, Ars2-13×myc (S. pombe); experiment: as above
[6] = target: T4, Rrp6-13×myc (S. pombe) (UniProt Q10146); experiment: co-IP; α-myc (9E10) on Protein G Dynabeads from S. pombe cell lysate, 4°C 2–3 h, lysis buffer; blot with α-FLAG-HRP; without RNase A
T4 sequence: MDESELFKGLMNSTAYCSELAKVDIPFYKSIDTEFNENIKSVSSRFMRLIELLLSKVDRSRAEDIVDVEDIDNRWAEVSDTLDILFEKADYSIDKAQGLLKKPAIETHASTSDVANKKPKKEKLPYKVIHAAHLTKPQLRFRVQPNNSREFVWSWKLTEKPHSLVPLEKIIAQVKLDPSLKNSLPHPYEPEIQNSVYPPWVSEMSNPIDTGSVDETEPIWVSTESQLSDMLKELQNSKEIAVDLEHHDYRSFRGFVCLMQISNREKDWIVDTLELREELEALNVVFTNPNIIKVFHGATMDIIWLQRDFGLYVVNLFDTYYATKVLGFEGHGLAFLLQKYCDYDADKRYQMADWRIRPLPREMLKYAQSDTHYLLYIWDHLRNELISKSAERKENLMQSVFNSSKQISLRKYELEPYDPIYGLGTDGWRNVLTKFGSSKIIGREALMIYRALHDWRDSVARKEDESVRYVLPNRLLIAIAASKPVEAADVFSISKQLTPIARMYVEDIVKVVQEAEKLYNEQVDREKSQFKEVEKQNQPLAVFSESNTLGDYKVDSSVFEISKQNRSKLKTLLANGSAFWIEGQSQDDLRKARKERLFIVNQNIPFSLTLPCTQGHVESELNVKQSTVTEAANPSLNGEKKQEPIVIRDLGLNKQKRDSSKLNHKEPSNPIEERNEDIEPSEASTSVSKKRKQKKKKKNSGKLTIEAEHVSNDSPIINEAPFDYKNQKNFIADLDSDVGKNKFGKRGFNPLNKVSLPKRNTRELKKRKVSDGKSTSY

[7] = target: T4, Rrp6-13×myc (S. pombe); experiment: co-IP; α-myc (9E10) on Protein G Dynabeads from S. pombe cell lysate, 4°C 2–3 h; RNase A 100 μg/mL present during binding and washing; blot with α-FLAG-HRP

B1: Red1-3×FLAG, Q9UTR8 1-712 (protein)
chain: MSRSINLDELRKKALESKKKNEEDESNDSDKEDGEISEDDPVIDQSNSVPPMKVPTFPEQIPQLPPFDRFPGTNANFFPFGAPFMLPPALMFGPNTVPFFPQTASSNKTFSKRKRSSENSFNNRNKAKSSETSDSSNTSQSFKENRALKDTATSRPLALSSDTSYQKSEKAKSEKSPFLSTSKNSDANYSKTTNQKEAEKAVSQLFEVGVRFNDFIAEGIEPSVVHTLFLKLGLDSSSASSQGSLTLSADKAARSAKLRKIDSNLSDTHILPGDNGTPTVLPERKNLISLPLLKQDDWLSSSKPFGSSTPNVVIEFDSDDDGDDFSNSKIEQSNLEKPPSNSENGLTMSRSDYLALLRNKEEEIRRMTKLILRLESNKKPYRSPTSAADMKLPSVPVAAVDNKSKTHLDTFEKVVDLSSKADFVEAGPSISSSGASSSAATTNSDTTEQILEAPWLRKTEQIAVVHEEHPAQIKKSEIDILNNLIEKEEGELTKYQTLVKSKTEILTQLYTRKKQLLEQQGKGNVACLPKESDLSMDSITEVSAQADENSSQILSSKTSNAPNGTTETDFEDKVPLVDYISPFYRFKSYRFNQQFVERVPLKYRSLTYSNKIEPMKVFCKYETTGGVCNDDHCEASHFRDIKMTDDEIIQDLSRYIEGNDEIEKESYKSGLDIVMKNTDENTDFVDVATRIVEYHNLWKSERMTIPVAKVSI
For B1, the binding [1] was “binds”.

B2: Red1-3×FLAG (protein, UniProt Q9UTR8 1-712)
chain: MSRSINLDELRKKALESKKKNEEDESNDSDKEDGEISEDDPVIDQSNSVPPMKVPTFPEQIPQLPPFDRFPGTNANFFPFGAPFMLPPALMFGPNTVPFFPQTASSNKTFSKRKRSSENSFNNRNKAKSSETSDSSNTSQSFKENRALKDTATSRPLALSSDTSYQKSEKAKSEKSPFLSTSKNSDANYSKTTNQKEAEKAVSQLFEVGVRFNDFIAEGIEPSVVHTLFLKLGLDSSSASSQGSLTLSADKAARSAKLRKIDSNLSDTHILPGDNGTPTVLPERKNLISLPLLKQDDWLSSSKPFGSSTPNVVIEFDSDDDGDDFSNSKIEQSNLEKPPSNSENGLTMSRSDYLALLRNKEEEIRRMTKLILRLESNKKPYRSPTSAADMKLPSVPVAAVDNKSKTHLDTFEKVVDLSSKADFVEAGPSISSSGASSSAATTNSDTTEQILEAPWLRKTEQIAVVHEEHPAQIKKSEIDILNNLIEKEEGELTKYQTLVKSKTEILTQLYTRKKQLLEQQGKGNVACLPKESDLSMDSITEVSAQADENSSQILSSKTSNAPNGTTETDFEDKVPLVDYISPFYRFKSYRFNQQFVERVPLKYRSLTYSNKIEPMKVFCKYETTGGVCNDDHCEASHFRDIKMTDDEIIQDLSRYIEGNDEIEKESYKSGLDIVMKNTDENTDFVDVATRIVEYHNLWKSERMTIPVAKVSI
For B2, the binding [2] was “binds”, the binding [3] was “binds” and the binding [4] was “binds”. The binding [5] was “binds”.

B3: Mtl1-3×FLAG (protein, UniProt O13799 1-1030)
chain: MSENSTDSKNFQFSEGSRESSNDELKVLLRDTETKEDEKSSFSNSEEESIIENLSDSSVNKEYAKNSLKLSDAVSESKYLNPLLKDKRHDRSFALHKVVVPDDYDYIPLNKHIPSDPPAKTYPFELDPFQSTAIKCVERMESVLVSAHTSAGKTVIAEYAIAQALKNRQRVIYTSPIKSLSNQKYRELLSEFGDVGLMTGDVSINPSASCLIMTTEILRAMLYKNSEIMHEIAWVIFDEVHYMRDKDRGVVWEETLILLPDAIRFIFLSATLPNALQFARWISEIHKQPCHVVYTDYRPTPLQHFIYPQGADGIYMLVDEKNKFKTENFKKVLEVLDHSTRQENYSKSSKKVKKSSSLERIINMVLSNRYDPIIVFCFSKKECEINAHQFGKLDLNDTENKELVTEIFDSAINQLSEEDRGLRQFEEMRSLLLRGIGIHHSGLLPILKELVEILFQEGLVRILFATETFSIGLNMPARTVLFTKAQKFSGNNFRWLTSGEYMQMSGRAGRRGIDTKGLSIVILDQSIDEQAARCLMNGQADVLNSAFHLSYGMILNLMRIEEISPEDILKKSFYQFQNMESLPLIKEELMQLKNEETSINIPNETAVKEFHDLKLQLEKYGEEIQKVMTHPDNCLPYLQSGRLIQIKLGGIIFPWGVLVNVIKREFDPNTREQVAPHETYVLDVLLPISSNSMSNHKVNPSILVPPRPNETPLYEIVSVLLTAVCNISSIRIYMPRELNSNESKLRAYRRVNEVIEEFKEIPYLDPLEHMHIESSTLSLSLRKLEILEPKLFDSPYYKDSKHRAEYHEFRKKLNLRAQIKDISTKITNTEAIIQLRELKIRQRVLRRLGFCTLENVIDIKGRVACEITSGDELLLVELIFQGFFNQMPPEEIAAALSCFVYEDKSEVSTLNLKEPFKKMYLTIIEAAKRIATVSLESKLQFNESDYLHQFKPDIMEPVSLWINGASFQEICIVSKLYEGSIVRTFRRLDELLKQLEHAAIVLGNNELKEKSVLTEQKLHRDIIFSASLYL
With B3 the binding [6] was “binds” and the binding [7] was “binds”.
